Drawing on PMC7819943, “Rice protein-binding microarrays: a tool to detect cis-acting elements near promoter regions in rice”, this text covers binding signal for 42 sequences.

Chains of the proteins cited; added tags and fusions are not shown.
UniProt Q0JBA9, entry or part of it: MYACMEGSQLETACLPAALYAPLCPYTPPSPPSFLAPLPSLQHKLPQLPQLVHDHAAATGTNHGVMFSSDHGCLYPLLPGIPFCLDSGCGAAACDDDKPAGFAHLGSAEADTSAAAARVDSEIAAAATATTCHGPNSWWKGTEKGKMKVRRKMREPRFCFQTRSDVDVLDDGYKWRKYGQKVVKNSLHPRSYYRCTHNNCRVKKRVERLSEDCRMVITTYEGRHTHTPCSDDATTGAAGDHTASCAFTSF

The list shows a part of the results.

For this assay, the target named is OsWRKY34 (Oryza sativa, UniProt Q0JBA9 1-250). Put plainly: protein-binding microarray (RPBM); PBS, 2% BSA, 51.3 ng/ul salmon testes DNA, 50 uM zinc acetate, 200 nM TF, 25 C, 1 h; high values mean tight binding. Particulars: protein: recombinant; tags: N-terminal polyhistidine and DsRed monomer fusion (pET32a); label: CyDye5-dUTP incorporated in the synthesized complementary strand; 3' TTTTT single-stranded linker to array surface; dsDNA, one strand shown. Put shortly:
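A custom Agilent array was converted to double-stranded form by primer extension with Cy5-dUTP and blocked with 2% BSA. Protein at 200 nM in PBS with 2% BSA, salmon testes DNA and 50 µM zinc acetate was applied for 1 h at 25 °C, followed by washing. The proteins were polyhistidine–DsRed N-terminal fusions of transcription factors, expressed in E. coli BL21-CodonPlus and Ni–NTA-purified. The binding signal is per-feature fluorescence intensity (arbitrary units) from an Axon 4000B scanner.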
As to “TTCTAAATAATATTTGACGCCGTTGACTTTTTTAAATATACGGAGTCACCTAGTGCAG”, the binding signal is 14600 fluorescence intensity (a.u.).
“ACTCTACATTTAATTTTTATAGGCTTTTTTTATAATTATTCGGAGTCACCTAGTGCAG”: the binding signal is 8070 fluorescence intensity (a.u.).
As for “TCGATCTCACTGTGGGTGGGCACTGTAGCTAGTGGTCTTGCGGAGTCACCTAGTGCAG”, the binding signal is 9460 fluorescence intensity (a.u.).
As for “CAGTGGATGGGCTTTCTTCGTTTCTGCAATGAGGTCATGTCGGAGTCACCTAGTGCAG”, the binding signal was 9920 fluorescence intensity (a.u.).
For the sequence “GTCCCGGGCACCGACCACGATCCGTTCCCGCCACACAAACCGGAGTCACCTAGTGCAG”, the binding signal is 8080 fluorescence intensity (a.u.).
As to “TGTGCTAAAAAGTCAACGGTGTCAAACATTTTGAAACGGACGGAGTCACCTAGTGCAG”, the binding signal was 10600 fluorescence intensity (a.u.).
The result for “GTTCCAGATGTCCTGCCCCTTGATCTCCTCCGGCGTCGGCCGGAGTCACCTAGTGCAG” reads 9510 fluorescence intensity (a.u.); that for “ACTAGTTTGTTCCAACGTACTCCCGCTTCCATCTAATCGCCGGAGTCACCTAGTGCAG”, 9340 fluorescence intensity (a.u.).
In the case of “TGTAGGGTGCGGTCGTTTTGAGCTTATAGGATTAGATTCTCGGAGTCACCTAGTGCAG” it was 10200 fluorescence intensity (a.u.).
In the case of “TCCCACCCGCTGCCACCAAAACCCTCCCCGCGCCCGGTCCCGGAGTCACCTAGTGCAG” it was 10500 fluorescence intensity (a.u.); in that of “GCATGCTCTGGCCGCTGCTCGTCTCGCTCAGCCAGCCGCTCGGAGTCACCTAGTGCAG”, 8180 fluorescence intensity (a.u.).
For “TAAGTGATCTGTGCGTTGCAATATATACCGATTATACCATCGGAGTCACCTAGTGCAG”, the binding signal was 9080 fluorescence intensity (a.u.).
In the case of “CTTCATCTGAATTTTGTCTCTTGGACTCTTTTCTCCATCTCGGAGTCACCTAGTGCAG” it was 9960 fluorescence intensity (a.u.); in that of “ATGTGTGAGTGCAACTTCCCTCCTTTTTTTTCAGTATCTTCGGAGTCACCTAGTGCAG”, 10500 fluorescence intensity (a.u.); in that of “GCTTGCTTTGTCACATGCAGTTTTACACCTTTTATTTCTCCGGAGTCACCTAGTGCAG”, 10400 fluorescence intensity (a.u.).
Turning to “ATGCTCTACTAACTCGTTGACCGATTACTATGAATGAACTCGGAGTCACCTAGTGCAG”, the binding signal is 10900 fluorescence intensity (a.u.).
On to “GTGCCATGCCATACTTTACCTATCATGTTTGCTGTCTGATCGGAGTCACCTAGTGCAG”, for which the binding signal is 8180 fluorescence intensity (a.u.).
For the sequence “CCCAGGCCCATCTCAGCCCAGCCCAGCCCGCAATCATCATCGGAGTCACCTAGTGCAG”, the binding signal was 9140 fluorescence intensity (a.u.).
Consider “GATAGTGTCCCACGCATGCGTCCACGAGTCCTCGACGCAACGGAGTCACCTAGTGCAG”, for which the binding signal is 9120 fluorescence intensity (a.u.).
For the sequence “TCCAAGTCTTCCGCCTTCGTTGGCCCCACCAGTCAGTGACCGGAGTCACCTAGTGCAG”, the binding signal is 9050 fluorescence intensity (a.u.).
In the case of “ATGTTTGCTTCCAGACTAATATTTCTTTGGAATCTACTCCCGGAGTCACCTAGTGCAG” it was 8180 fluorescence intensity (a.u.); in that of “ATATTTATTAGTTGGCGTGTATGTAAAACTTGTGTGTTTCCGGAGTCACCTAGTGCAG”, 8400 fluorescence intensity (a.u.).
For “TAAAGGGAGGAGGGGAGATGGGCAGTGGCGGCTAGGGTTTCGGAGTCACCTAGTGCAG”, the binding signal was 8730 fluorescence intensity (a.u.).
As to “GATCTCGAATTCTCTCGTCTCCAATCGCTGCAGATTTCCACGGAGTCACCTAGTGCAG”, the binding signal was 16200 fluorescence intensity (a.u.).
Turning to “ACCTGGCCGAGTTCCTGAAGATATCGTGATTATTACTCACCGGAGTCACCTAGTGCAG”, the binding signal is 8260 fluorescence intensity (a.u.).
As for “ATTATTTTCCTATCATTTGATTCATTGTTAAATATACTTTCGGAGTCACCTAGTGCAG”, the binding signal was 8840 fluorescence intensity (a.u.).
Regarding “CTCTCTGCCTCTTGCAGATGCTGTTGCTCTCACCCTGACACGGAGTCACCTAGTGCAG”, the binding signal was 9250 fluorescence intensity (a.u.).
Turning to “TCGAGGGAAGGGGATTGGGAGTTTACACGAGGGAATTGATCGGAGTCACCTAGTGCAG”, the binding signal was 12300 fluorescence intensity (a.u.).
Take “TCCATCGCAGCCGCTCCAGCCAACGCCGCAGTACTTGCCACGGAGTCACCTAGTGCAG”: the binding signal was 8360 fluorescence intensity (a.u.).
On to “TATTCGGCTTTCGCGTCGCTGTCCGCCTCCATCGCCGCCGCGGAGTCACCTAGTGCAG”, for which the binding signal is 9360 fluorescence intensity (a.u.).
“ACGAGTTGACGACGACCCACTTGCGGCCACTTTCCTTCACCGGAGTCACCTAGTGCAG”: the binding signal was 10300 fluorescence intensity (a.u.).
For “GCCGGATCATCCTCTTCCCTGCTGCCAATGGCGGCCGCCGCGGAGTCACCTAGTGCAG”, the binding signal was 8740 fluorescence intensity (a.u.).
With “CATCTCCATTGATCACCTTGTTGTCTCAGCTGCATTATCCCGGAGTCACCTAGTGCAG”, the binding signal is 8130 fluorescence intensity (a.u.).
Regarding “GATGTGTGGGGTGTAGGTGTGATCGATCGAGGGACGACAACGGAGTCACCTAGTGCAG”, the binding signal is 9030 fluorescence intensity (a.u.).
Regarding “AACAAGACGAATGGTCAAACATGTTTAAAAAAGTCAACGGCGGAGTCACCTAGTGCAG”, the binding signal was 15700 fluorescence intensity (a.u.).
The result for “AGGTACGCACGCGCGGTGGAGGAGGAGGAGGAGGAGGAGGCGGAGTCACCTAGTGCAG” reads 10900 fluorescence intensity (a.u.).
Regarding “ATGGTCCTTGATGCTTCTTGTACTTAATTTCTTTTAAATTCGGAGTCACCTAGTGCAG”, the binding signal is 8610 fluorescence intensity (a.u.).
On to “TGGGGATGTGTTGTGGTGAGCTGGAAAGTGCAAACTGGTTCGGAGTCACCTAGTGCAG”, for which the binding signal is 9630 fluorescence intensity (a.u.).
For “ACTGTTTCACCACACTCGTGTTTTTTTACTGTTTCACTTACGGAGTCACCTAGTGCAG”, the binding signal is 11100 fluorescence intensity (a.u.).
For “TCCTCAAAGCATCATCAGGTCCATTTCATTTGCACATCCACGGAGTCACCTAGTGCAG”, the binding signal is 8180 fluorescence intensity (a.u.).
Consider “GTCAGTCACACTTGCAATAGGTTCTCATCACCTGTCTCAACGGAGTCACCTAGTGCAG”, for which the binding signal is 8780 fluorescence intensity (a.u.).
As to “CTTTATAAATCATTCGAATACGAGTCTCATAACATTTTTACGGAGTCACCTAGTGCAG”, the binding signal was 10100 fluorescence intensity (a.u.).
